Measured data: PubChem BioAssay AID1159592 (NIAID, 2016)

Test: 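Which core TLR components make p65 move nuclear in R848-treated mouse macrophages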
Cell system: RAW264.7 macrophages from mouse bearing reporters for p65 (GFP) and the Tnf promoter (mCherry)
Reagents: single siRNA against mouse genes
Duration: 48 to 72 hours after siRNA transfection
Challenge: R848 TLR ligand for 40 minutes before fixation; dose not given
Read-out: 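Replicate mean of robust z-score relative to negative-control wells, after median/MAD scaling by plate, for the imaged GFP-p65 nuclear-to-cytoplasmic ratio 40 minutes after R848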
Direction: NF-kB translocation z-score: higher = more p65 moved into the nucleus than in negative-control wells
Rule for the call: 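Active when the replicate-mean z lies above 1.5 or below -1.5; the depositor also grades absolute z in steps of 1, 1.5, 2 and 2.5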
Meaning of the calls: active = strong change, either direction; inactive = little change
Here is a random part of 756 deposited reagents. 147 of them (19%) were called active. 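Active covers both loss and gain of p65 entry; negative z means weaker NF-kB activation, positive means more nuclear p65.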 Unmarked entries are inactive. Reagents against one gene are numbered here. Reagent sequences are not shown. The record does not give: the amount of reagent.

The first 2 entries, to show the layout:
{"Gene": "Rela", "reagent": 1, "NF-kB translocation z-score, replicate mean": "-1.53 (active)"}
{"Gene": "Rela", "reagent": 2, "NF-kB translocation z-score, replicate mean": -1.34}

The listing, from the first entry:
{"Gene": "Rela", "reagent": 1, "NF-kB translocation z-score, replicate mean": "-1.53 (active)"}
{"Gene": "Rela", "reagent": 2, "NF-kB translocation z-score, replicate mean": -1.34}
{"Gene": "Rela", "reagent": 3, "NF-kB translocation z-score, replicate mean": -0.261}
{"Gene": "Rela", "reagent": 4, "NF-kB translocation z-score, replicate mean": "-1.89 (active)"}
{"Gene": "Rela", "reagent": 5, "NF-kB translocation z-score, replicate mean": "-3.26 (active)"}
{"Gene": "Rela", "reagent": 6, "NF-kB translocation z-score, replicate mean": "-2.46 (active)"}
{"Gene": "Rel", "reagent": 1, "NF-kB translocation z-score, replicate mean": -0.417}
{"Gene": "Rel", "reagent": 2, "NF-kB translocation z-score, replicate mean": 0.396}
{"Gene": "Rel", "reagent": 3, "NF-kB translocation z-score, replicate mean": "2.03 (active)"}
{"Gene": "Rel", "reagent": 4, "NF-kB translocation z-score, replicate mean": -0.677}
{"Gene": "Rel", "reagent": 5, "NF-kB translocation z-score, replicate mean": 1.09}
{"Gene": "Rel", "reagent": 6, "NF-kB translocation z-score, replicate mean": -0.155}
{"Gene": "Map2k7", "reagent": 1, "NF-kB translocation z-score, replicate mean": 1.18}
{"Gene": "Map2k7", "reagent": 2, "NF-kB translocation z-score, replicate mean": -0.281}
{"Gene": "Map2k7", "reagent": 3, "NF-kB translocation z-score, replicate mean": -0.413}
{"Gene": "Map2k7", "reagent": 4, "NF-kB translocation z-score, replicate mean": -1.25}
{"Gene": "Map2k7", "reagent": 5, "NF-kB translocation z-score, replicate mean": -1.03}
{"Gene": "Map2k7", "reagent": 6, "NF-kB translocation z-score, replicate mean": -0.85}
{"Gene": "Irak1", "reagent": 1, "NF-kB translocation z-score, replicate mean": "-1.78 (active)"}
{"Gene": "Irak1", "reagent": 2, "NF-kB translocation z-score, replicate mean": -0.068}
{"Gene": "Irak1", "reagent": 3, "NF-kB translocation z-score, replicate mean": -1.19}
{"Gene": "Irak1", "reagent": 4, "NF-kB translocation z-score, replicate mean": -1.23}
{"Gene": "Irak1", "reagent": 5, "NF-kB translocation z-score, replicate mean": 0.0191}
{"Gene": "Irak1", "reagent": 6, "NF-kB translocation z-score, replicate mean": -0.757}
{"Gene": "Mapk10", "reagent": 1, "NF-kB translocation z-score, replicate mean": 0.908}
{"Gene": "Mapk10", "reagent": 2, "NF-kB translocation z-score, replicate mean": -0.118}
{"Gene": "Mapk10", "reagent": 3, "NF-kB translocation z-score, replicate mean": 0.00101}
{"Gene": "Mapk10", "reagent": 4, "NF-kB translocation z-score, replicate mean": 0.526}
{"Gene": "Mapk10", "reagent": 5, "NF-kB translocation z-score, replicate mean": -0.332}
{"Gene": "Mapk10", "reagent": 6, "NF-kB translocation z-score, replicate mean": 0.0428}
{"Gene": "Map3k8", "reagent": 1, "NF-kB translocation z-score, replicate mean": -0.4}
{"Gene": "Map3k8", "reagent": 2, "NF-kB translocation z-score, replicate mean": 0.122}
{"Gene": "Map3k8", "reagent": 3, "NF-kB translocation z-score, replicate mean": -0.225}
{"Gene": "Map3k8", "reagent": 4, "NF-kB translocation z-score, replicate mean": 0.101}
{"Gene": "Map3k8", "reagent": 5, "NF-kB translocation z-score, replicate mean": 0.711}
{"Gene": "Map3k8", "reagent": 6, "NF-kB translocation z-score, replicate mean": 0.273}
